{"source": "PubChem BioAssay AID504764 (Drosophila RNAi Screening Center, 2011)", "purpose": "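Genes whose knock-down alters Notch-dependent transcription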 (primary screen)", "cell system": "Drosophila Kc167 cells", "reagents": "long dsRNA against Drosophila genes", "time to read-out": "about 5 days (4 days dsRNA, then 24 h after transfection)", "conditions": "transfection of constitutively active membrane-tethered Notch lacking the extracellular domain, read 24 h later", "detection": "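Firefly luciferase from an E(spl)m3 reporter with active Notch, plus control-promoter and uninduced reporter wells for normalisation; unnormalised counts, duplicate wells a and b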", "scale": "induced reporter light, run 1, well a and induced reporter light, run 1, well b: higher = more light from the Notch target reporter with active Notch; control promoter light, run 1, well a and control promoter light, run 1, well b: higher = more light from the viral control promoter (cell number, transfection, viability); uninduced reporter light, run 1, well a: higher = more light from the Notch target reporter without active Notch", "active means": "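Hit if the duplicate-averaged log2 ratio of induced to control-promoter light gives a plate-wise z beyond ±2, or induced to uninduced beyond ±1.8; weak-control or discordant-duplicate wells dropped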", "calls": "active = modifier hit (raised or lowered Notch signal); inactive = not a hit", "note": "The screen tested about 22,000 reagents; below is an unselected part of those that have a named target and a result. In the full data, 403 (1.9%) got an active call. 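Unnormalised raw counts per well; ratio z-scores behind the hit calls and whether each hit raises or lowers signal are not deposited.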 Reagent sequences are not shown. Not stated in the record: the amount of reagent."}
{"Target gene": "CG13679", "amplicon": "DRSC10037", "induced reporter light, run 1, well a": 3.06e5, "induced reporter light, run 1, well b": 2.04e5, "control promoter light, run 1, well a": 2.52e5, "control promoter light, run 1, well b": 2.11e5, "uninduced reporter light, run 1, well a": 11630, "call": "inactive"}
{"Target gene": "alpha-Est4", "amplicon": "DRSC12616", "induced reporter light, run 1, well a": 88815, "induced reporter light, run 1, well b": 1.02e5, "control promoter light, run 1, well a": 89965, "control promoter light, run 1, well b": 70030, "uninduced reporter light, run 1, well a": 4660, "call": "inactive"}
{"Target gene": "ATP8A", "amplicon": "DRSC05421", "induced reporter light, run 1, well a": 1.78e5, "induced reporter light, run 1, well b": 1.75e5, "control promoter light, run 1, well a": 2.22e5, "control promoter light, run 1, well b": 2.82e5, "uninduced reporter light, run 1, well a": 19045, "call": "inactive"}
{"Target gene": "ATP8A", "amplicon": "DRSC06643", "induced reporter light, run 1, well a": 1.63e5, "induced reporter light, run 1, well b": 1.35e5, "control promoter light, run 1, well a": 1.34e5, "control promoter light, run 1, well b": 1.19e5, "uninduced reporter light, run 1, well a": 11120, "call": "inactive"}
{"Target gene": "ATP8A", "amplicon": "DRSC06644", "induced reporter light, run 1, well a": 96495, "induced reporter light, run 1, well b": 88235, "control promoter light, run 1, well a": 1.14e5, "control promoter light, run 1, well b": 96910, "uninduced reporter light, run 1, well a": 7820, "call": "inactive"}
{"Target gene": "coil", "amplicon": "DRSC07242", "induced reporter light, run 1, well a": 1.84e5, "induced reporter light, run 1, well b": 1.70e5, "control promoter light, run 1, well a": 1.53e5, "control promoter light, run 1, well b": 1.76e5, "uninduced reporter light, run 1, well a": 14130, "call": "inactive"}
{"Target gene": "CG34436", "amplicon": "DRSC15164", "induced reporter light, run 1, well a": 6810, "induced reporter light, run 1, well b": 5315, "control promoter light, run 1, well a": 10135, "control promoter light, run 1, well b": 8660, "uninduced reporter light, run 1, well a": 460, "call": "inactive"}
{"Target gene": "RpL37A", "amplicon": "DRSC02899", "induced reporter light, run 1, well a": 1.01e5, "induced reporter light, run 1, well b": 89925, "control promoter light, run 1, well a": 1.43e5, "control promoter light, run 1, well b": 1.05e5, "uninduced reporter light, run 1, well a": 4290, "call": "inactive"}
{"Target gene": "Stam", "amplicon": "DRSC03444", "induced reporter light, run 1, well a": 2.23e5, "induced reporter light, run 1, well b": 2.77e5, "control promoter light, run 1, well a": 2.07e5, "control promoter light, run 1, well b": 1.59e5, "uninduced reporter light, run 1, well a": 19378, "call": "inactive"}
{"Target gene": "CG7492", "amplicon": "DRSC10855", "induced reporter light, run 1, well a": 99500, "induced reporter light, run 1, well b": 88685, "control promoter light, run 1, well a": 72935, "control promoter light, run 1, well b": 34425, "uninduced reporter light, run 1, well a": 8205, "call": "inactive"}
{"Target gene": "S1P", "amplicon": "DRSC11810", "induced reporter light, run 1, well a": 49885, "induced reporter light, run 1, well b": 38185, "control promoter light, run 1, well a": 46000, "control promoter light, run 1, well b": 37990, "uninduced reporter light, run 1, well a": 3335, "call": "inactive"}
{"Target gene": "p120ctn", "amplicon": "DRSC07753", "induced reporter light, run 1, well a": 2.10e5, "induced reporter light, run 1, well b": 1.86e5, "control promoter light, run 1, well a": 2.26e5, "control promoter light, run 1, well b": 3.01e5, "uninduced reporter light, run 1, well a": 11905, "call": "inactive"}
{"Target gene": "CG15878", "amplicon": "DRSC08486", "induced reporter light, run 1, well a": 1.03e5, "induced reporter light, run 1, well b": 1.27e5, "control promoter light, run 1, well a": 1.77e5, "control promoter light, run 1, well b": 1.36e5, "uninduced reporter light, run 1, well a": 6215, "call": "inactive"}
{"Target gene": "Hr96", "amplicon": "DRSC16707", "induced reporter light, run 1, well a": 1.52e5, "induced reporter light, run 1, well b": 1.48e5, "control promoter light, run 1, well a": 1.98e5, "control promoter light, run 1, well b": 1.94e5, "uninduced reporter light, run 1, well a": 15935, "call": "inactive"}
{"Target gene": "Rtf1", "amplicon": "DRSC04085", "induced reporter light, run 1, well a": 2.00e5, "induced reporter light, run 1, well b": 1.86e5, "control promoter light, run 1, well a": 1.16e5, "control promoter light, run 1, well b": 1.41e5, "uninduced reporter light, run 1, well a": 16125, "call": "inactive"}
{"Target gene": "Cpr31A", "amplicon": "DRSC02779", "induced reporter light, run 1, well a": 1.06e5, "induced reporter light, run 1, well b": 1.16e5, "control promoter light, run 1, well a": 70330, "control promoter light, run 1, well b": 87620, "uninduced reporter light, run 1, well a": 17575, "call": "inactive"}
{"Target gene": "Fer2", "amplicon": "DRSC15925", "induced reporter light, run 1, well a": 1.97e5, "induced reporter light, run 1, well b": 2.03e5, "control promoter light, run 1, well a": 2.20e5, "control promoter light, run 1, well b": 2.39e5, "uninduced reporter light, run 1, well a": 17940, "call": "inactive"}
{"Target gene": "Nelf-A", "amplicon": "DRSC15903", "induced reporter light, run 1, well a": 1.48e5, "induced reporter light, run 1, well b": 1.82e5, "control promoter light, run 1, well a": 2.24e5, "control promoter light, run 1, well b": 2.25e5, "uninduced reporter light, run 1, well a": 13635, "call": "inactive"}

An excerpt from the list above, as a working copy:
{"Target gene": "ATP8A", "amplicon": "DRSC06643", "induced reporter light, run 1, well a": 1.63e5, "induced reporter light, run 1, well b": 1.35e5, "control promoter light, run 1, well a": 1.34e5, "control promoter light, run 1, well b": 1.19e5, "uninduced reporter light, run 1, well a": 11120, "call": "inactive"}
{"Target gene": "ATP8A", "amplicon": "DRSC06644", "induced reporter light, run 1, well a": 96495, "induced reporter light, run 1, well b": 88235, "control promoter light, run 1, well a": 1.14e5, "control promoter light, run 1, well b": 96910, "uninduced reporter light, run 1, well a": 7820, "call": "inactive"}
